{
  "source": "patent US8058068B2",
  "about": "“Peptide-enhanced transfections” (Life Technologies Corporation, priority 1995, dated 2011)",
  "assay_type_in_all_cases": "cell-based",
  "key": {"[1]": {"system": "Human fibroblasts", "conditions": "amount of peptide at peak activity"}, "[2]": {"system": "NIH/3T3 cells", "conditions": "amount of peptide at peak activity", "procedure": "Two versions of the Tat peptide were synthesized: one with the DNA-binding group carboxyspermine on the N-terminus and one without. The core TAT sequence employed was […] [SEQ ID NO:123]. The ability of the TAT peptide and the carboxyspermine-modified TAT peptide to enhance cationic lipid-mediated transfection was tested.\nTransfection was performed in NIH/3T3 cells, in 24-well plates. Seeding density was 6×10^4 cells/well. For each condition, the standard PLUS protocol was used (see example 3) for complexing. All complexes were prepared in OptiMEM reduced serum media. Cells were harvested and assayed for β-galactosidase acivity in the soluble extracts by luminescent assay (see example 8). […] A clear enhancement is seen."}, "[3]": {"system": "Human fibroblasts"}},
  "data": [
    {"substance": "CGYGPKKKRKVGGGGRGDSPCG [G61934P NLSRGD]", "values": [
      {"measurement": "Peptide Amount (mg per 0.4 mg DNA)", "setting": "[1]", "result": 20, "unit": "mg per 0.4 mg DNA"}
    ]},
    {"substance": "CGYGRKKRRQRRRG [TAT]", "values": [
      {"measurement": "Peak peptide", "setting": "[2]", "result": 2.0, "unit": "µg"}
    ]},
    {"substance": "GRGDSPCGGK16 (SSDDEATADSQHSTPPKKKRKVGG) [RGDK16]", "values": [
      {"measurement": "Peptide Amount (mg per 0.4 mg DNA)", "setting": "[1]", "result": 5, "unit": "mg per 0.4 mg DNA"}
    ]},
    {"substance": "GYGPKKKRKVGG [NLS, nuclear localization signal of SV40 large T antigen]", "values": [
      {"measurement": "Peptide Amount (mg per 0.4 mg DNA)", "setting": "[1]", "result": 20, "unit": "mg per 0.4 mg DNA"}
    ]},
    {"substance": "K16 (KKKKKKKKKKKKKKKKKKKK)", "values": [
      {"measurement": "Peptide Amount (mg per 0.4 mg DNA)", "setting": "[1]", "result": 0.5, "unit": "mg per 0.4 mg DNA"}
    ]},
    {"substance": "K16CGYGPKKKRKVGGGGRGDSP (KKKKKKKKKKKKKKKKGGCGYGPKKKRKVGGKFTIVF) [K16NLSRGD]", "values": [
      {"measurement": "Peptide Amount (mg per 0.4 mg DNA)", "setting": "[1]", "result": 2, "unit": "mg per 0.4 mg DNA"}
    ]},
    {"substance": "K16GGCGYGPKKKRKVGG [K16NLS (peak 1)] (KKKKKKKKKKKKKKKKKFTTIVFCGYGPKKKRKVGG)", "values": [
      {"measurement": "Peptide Amount (mg per 0.4 mg DNA)", "setting": "[1]", "result": 10, "unit": "mg per 0.4 mg DNA"}
    ]},
    {"substance": "K16GGCGYGPKKKRKVGG [K16NLS (peak 2)]", "values": [
      {"measurement": "Peptide Amount (mg per 0.4 mg DNA)", "setting": "[1]", "result": 0.5, "unit": "mg per 0.4 mg DNA"}
    ]},
    {"substance": "K16GGRGDSPCG [K16RGD]", "values": [
      {"measurement": "Peptide Amount (mg per 0.4 mg DNA)", "setting": "[1]", "result": 2, "unit": "mg per 0.4 mg DNA"}
    ]},
    {"substance": "Sp-5-CO-GCGYGPKKKRKVG [Opf-GG-2-CYS (peak 1)] (GLFEAIAEFIEGGWEGLIEGGGYGGGGGGPKKKRKVGG; N-terminal spermine conjugate)", "values": [
      {"measurement": "Peptide Amount (mg per 0.4 mg DNA)", "setting": "[1]", "result": 10, "unit": "mg per 0.4 mg DNA"}
    ]},
    {"substance": "Sp-5-CO-GCGYGPKKKRKVG [Opf-GG-2-CYS (peak 2)] (N-terminal spermine conjugate)", "values": [
      {"measurement": "Peptide Amount (mg per 0.4 mg DNA)", "setting": "[1]", "result": 20, "unit": "mg per 0.4 mg DNA"}
    ]},
    {"substance": "Sp-5-CO-GGGGGYGPKKKRKVGG [Opf-GG-1]", "values": [
      {"measurement": "Peptide Amount (mg per 0.4 mg DNA)", "setting": "[1]", "result": 6, "unit": "mg per 0.4 mg DNA"}
    ]},
    {"substance": "Sp-5-CO-GGYGPKKKRKVG [Opf-GG-2 (peak 1)]", "values": [
      {"measurement": "Peptide Amount (mg per 0.4 mg DNA)", "setting": "[1]", "result": 10, "unit": "mg per 0.4 mg DNA"}
    ]},
    {"substance": "Sp-5-CO-GGYGPKKKRKVG [Opf-GG-2 (peak 2)]", "values": [
      {"measurement": "Peptide Amount (mg per 0.4 mg DNA)", "setting": "[1]", "result": 2, "unit": "mg per 0.4 mg DNA"}
    ]},
    {"substance": "Sp-5-CO-GGYGPKKKRKVGGGGYGPKKKRKVGG (N-terminal spermine conjugate (Sp-5-CO)) [Sp-NLSNLS, the peptide NLSNLS conjugated to spermine]", "values": [
      {"measurement": "Sp-NLSNLS amount resulting in a plateau of enhanced activity", "setting": "[3]", "result": "2 to 20", "unit": "µg"},
      {"measurement": "Peptide Amount (mg per 0.4 mg DNA)", "setting": "[1]", "result": 4, "unit": "mg per 0.4 mg DNA"}
    ]},
    {"substance": "Sp-5-CO-GYGPKKKRKVGGGGGRGDMFGG [SpNLSRGD]", "values": [
      {"measurement": "Peptide Amount (mg per 0.4 mg DNA)", "setting": "[1]", "result": 20, "unit": "mg per 0.4 mg DNA"}
    ]},
    {"substance": "sp-TAT: Tat peptide CGYGRKKRRQRRRG with the DNA-binding group carboxyspermine on the N-terminus (N-terminal carboxyspermine)", "values": [
      {"measurement": "Peak peptide", "setting": "[2]", "result": 0.5, "unit": "µg"}
    ]}
  ]
}
